PubChem BioAssay AID743454 – Peter MacCallum Cancer Centre – 2014
In all, the deposit lists about 18,000 reagents; shown is a random part of them. Of all reagents, 450 (2.5%) got an active call. 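Single biological run; no consistent viability z cut-off exists, so the class columns, not z-scores, define the calls.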 No sequences are given here.

Test: 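Search for knock-downs that restore vorinostat killing in resistant colon cancer cells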 (primary screen)
System: human HCT116-VR colon cancer cells, selected for vorinostat resistance
Reagents: siRNA pool against human genes, 40 nM siRNA pool
Time to read-out: vorinostat for 24 h, read-out about 72 h after transfection
Treatment: vorinostat at 2.5 µM final
Detection: 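Cell viability by CellTiter-Fluor and caspase 3/7 activity by luminescence, each scaled to mock wells per plate, duplicates averaged, then robust z-scored over all plates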
Reading the numbers: viability robust z-score: higher = more viable cells than screen typical; caspase robust z-score: higher = more caspase 3/7 activity than screen typical
Rule for the call: 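a knock-down is a hit when classed RV1 or RV2 for lowered viability, or CA1 or CA2 for caspase activation; those lethal without drug were dropped; hits were retested singly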

Depletion of BBOF1 (basal body orientation factor 1) [SID134318691] resulted in: viability hit class no change; caspase hit class no change; viability robust z-score -0.44; caspase robust z-score -0.43; inactive. FTO (FTO alpha-ketoglutarate dependent dioxygenase) [SID152149008] scored viability hit class no change; caspase hit class no change; viability robust z-score 1.17; caspase robust z-score 0.05; inactive. Knock-down of FZD8 (frizzled class receptor 8) [SID134310193] came out at: viability hit class no change; caspase hit class no change; viability robust z-score 0.02; caspase robust z-score 0.96; inactive. With knock-down of CNKSR1 (connector enhancer of kinase suppressor of Ras 1) [SID135622272], the screen gave viability hit class no change; caspase hit class no change; viability robust z-score -4.6; caspase robust z-score 0.4; inactive. After knock-down of DAZ2 (deleted in azoospermia 2) [SID135624113] the results were viability hit class no change; caspase hit class no change; viability robust z-score 0.54; caspase robust z-score 0.38; inactive. PADI4 (peptidyl arginine deiminase 4) [SID134316741] scored viability hit class no change; caspase hit class no change; viability robust z-score -0.4; caspase robust z-score -0.5; inactive.

Knock-down of C12orf60 (chromosome 12 open reading frame 60) [SID135623429] came out at: viability hit class no change; caspase hit class no change; viability robust z-score 0.4; caspase robust z-score 2.15; inactive. Knock-down of PLPP6 (phospholipid phosphatase 6) [SID152152840] resulted in: viability hit class no change; caspase hit class no change; viability robust z-score 0.23; caspase robust z-score 3.23; inactive. Against GPR84 (G protein-coupled receptor 84) [SID134311044], the entry reads viability hit class no change; caspase hit class no change; viability robust z-score -1.21; caspase robust z-score 2.59; inactive. With knock-down of RAB39B (RAB39B, member RAS oncogene family) [SID152153767], the record shows viability hit class no change; caspase hit class no change; viability robust z-score 1.32; caspase robust z-score -0.39; inactive. Depletion of ZDHHC14 (zDHHC palmitoyltransferase 14) [SID134320683] came out at: viability hit class no change; caspase hit class no change; viability robust z-score -0.94; caspase robust z-score -0.19; inactive. ASIC1 (acid sensing ion channel subunit 1) [SID135621145] scored viability hit class no change; caspase hit class no change; viability robust z-score -2.01; caspase robust z-score 2.86; inactive.

Single entries from above.
Result of C12orf60 (chromosome 12 open reading frame 60) [SID135623429] in “caspase robust z-score”: 2.15
For “call”, DAZ2 (deleted in azoospermia 2) [SID135624113] has inactive
